# PubChem BioAssay AID1224830 – NIAID, 2016
# Assay: 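Genes whose knock-down alters the TNF-alpha reporter response to LPS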 (primary screen)
# Cells: human THP-1 monocytic leukaemia cells, TNF dual-luciferase reporter clone, PMA-differentiated to macrophage-like cells
# Knock-down reagent: siRNA pool against human genes, 50 nM
# Time to read-out: LPS for 4 h, given about 3 days after siRNA transfection
# Conditions: bacterial LPS (TLR4 ligand), 10 ng/ml
# Measured: 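TNF firefly reporter luminescence divided by renilla, normalised to the plate median, then turned into a robust z-score for each replicate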
# Direction: TNF reporter robust z-score: higher = stronger TNF reporter response to LPS
# Hit rule: 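a well is active when its z-score exceeds 2.8 or falls below -1.5; control wells carry no call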
# The deposit covers about 18,000 reagents; this is a part drawn at random. Of all reagents, about 2,900 (16%) were called active. 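Calls are made per well; low scores hint the gene aids the LPS response, high scores that it dampens it.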 The numbers tell different reagents against one gene apart. Repeated entries: four replicate wells of each siRNA pool. Reagent sequences are not shown.
gene,reagent,TNF reporter robust z-score,call
APC2 (GeneID 10297),1,2.75,inactive
APC2 (GeneID 10297),1,1.94,inactive
APC2 (GeneID 10297),1,2.35,inactive
APC2 (GeneID 10297),1,3,active
CLEC7A (GeneID 64581),1,-0.55,inactive
CLEC7A (GeneID 64581),1,0.2,inactive
CLEC7A (GeneID 64581),1,-0.7,inactive
CLEC7A (GeneID 64581),1,-0.86,inactive
GOLGA6B (GeneID 55889),1,-0.31,inactive
GOLGA6B (GeneID 55889),1,0.64,inactive
GOLGA6B (GeneID 55889),1,1.77,inactive
GOLGA6B (GeneID 55889),1,-0.94,inactive
ARHGAP31 (GeneID 57514),1,-0.69,inactive
ARHGAP31 (GeneID 57514),1,0.72,inactive
ARHGAP31 (GeneID 57514),1,-0.05,inactive
ARHGAP31 (GeneID 57514),1,0.35,inactive
CCDC91 (GeneID 55297),1,0.93,inactive
CCDC91 (GeneID 55297),1,0.74,inactive
CCDC91 (GeneID 55297),1,0.77,inactive
CCDC91 (GeneID 55297),1,-0.42,inactive
FARP1 (GeneID 10160),1,-1.1,inactive
FARP1 (GeneID 10160),1,-0.48,inactive
FARP1 (GeneID 10160),1,-0.02,inactive
FARP1 (GeneID 10160),1,-0.55,inactive
ZCCHC9 (GeneID 84240),1,3.36,active
ZCCHC9 (GeneID 84240),1,2.49,inactive
ZCCHC9 (GeneID 84240),1,3.28,active
ZCCHC9 (GeneID 84240),1,0.69,inactive
COL1A2 (GeneID 1278),1,-2.04,active
COL1A2 (GeneID 1278),1,-2.01,active
COL1A2 (GeneID 1278),1,-2,active
COL1A2 (GeneID 1278),1,-1.75,active
INTS2 (GeneID 57508),1,1.28,inactive
INTS2 (GeneID 57508),1,3.54,active
INTS2 (GeneID 57508),1,1.83,inactive
INTS2 (GeneID 57508),1,1.6,inactive
KLHL22 (GeneID 84861),1,-0.32,inactive
KLHL22 (GeneID 84861),1,4.8,active
KLHL22 (GeneID 84861),1,0.3,inactive
KLHL22 (GeneID 84861),1,1.89,inactive
DYNLT1 (GeneID 6993),1,-0.34,inactive
DYNLT1 (GeneID 6993),1,0.81,inactive
DYNLT1 (GeneID 6993),1,-0.62,inactive
DYNLT1 (GeneID 6993),1,-0.04,inactive
TNFRSF19 (GeneID 55504),1,-1.23,inactive
TNFRSF19 (GeneID 55504),1,0.54,inactive
TNFRSF19 (GeneID 55504),1,0.1,inactive
TNFRSF19 (GeneID 55504),1,-0.29,inactive
TMPRSS15 (GeneID 5651),1,-0.93,inactive
TMPRSS15 (GeneID 5651),1,-0.73,inactive
TMPRSS15 (GeneID 5651),1,0.84,inactive
TMPRSS15 (GeneID 5651),1,-0.32,inactive
PHRF1 (GeneID 57661),1,0.38,inactive
PHRF1 (GeneID 57661),1,0.58,inactive
PHRF1 (GeneID 57661),1,-0.25,inactive
PHRF1 (GeneID 57661),1,2,inactive
RRM2 (GeneID 6241),1,-0.2,inactive
RRM2 (GeneID 6241),1,-0.25,inactive
RRM2 (GeneID 6241),1,-0.82,inactive
RRM2 (GeneID 6241),1,0.82,inactive
RRM2 (GeneID 6241),2,2.08,inactive
RRM2 (GeneID 6241),2,1.18,inactive
RRM2 (GeneID 6241),2,3.04,active
RRM2 (GeneID 6241),2,1.22,inactive
CSNK2B (GeneID 1460),1,2.13,inactive
CSNK2B (GeneID 1460),1,1.67,inactive
CSNK2B (GeneID 1460),1,-0.53,inactive
CSNK2B (GeneID 1460),1,1.94,inactive
JUND (GeneID 3727),1,0.05,inactive
JUND (GeneID 3727),1,-0.99,inactive
JUND (GeneID 3727),1,0.56,inactive
JUND (GeneID 3727),1,-0.83,inactive
OSBPL1A (GeneID 114876),1,0.38,inactive
OSBPL1A (GeneID 114876),1,0.95,inactive
OSBPL1A (GeneID 114876),1,1.28,inactive
OSBPL1A (GeneID 114876),1,1,inactive
SHROOM4 (GeneID 57477),1,-1.42,inactive
SHROOM4 (GeneID 57477),1,-1,inactive
SHROOM4 (GeneID 57477),1,-0.39,inactive
SHROOM4 (GeneID 57477),1,-0.58,inactive
ZBTB38 (GeneID 253461),1,-0.21,inactive
ZBTB38 (GeneID 253461),1,0.89,inactive
ZBTB38 (GeneID 253461),1,0.65,inactive
ZBTB38 (GeneID 253461),1,1.06,inactive
GLYATL1 (GeneID 92292),1,0.08,inactive
GLYATL1 (GeneID 92292),1,0.15,inactive
GLYATL1 (GeneID 92292),1,-0.79,inactive
GLYATL1 (GeneID 92292),1,-0.42,inactive
TOPBP1 (GeneID 11073),1,-1,inactive
TOPBP1 (GeneID 11073),1,-0.26,inactive
TOPBP1 (GeneID 11073),1,-0.02,inactive
TOPBP1 (GeneID 11073),1,-0.71,inactive
IQSEC2 (GeneID 23096),1,2.12,inactive
IQSEC2 (GeneID 23096),1,1.91,inactive
IQSEC2 (GeneID 23096),1,1.02,inactive
IQSEC2 (GeneID 23096),1,1.33,inactive
MAN1C1 (GeneID 57134),1,-0.25,inactive
MAN1C1 (GeneID 57134),1,-0.77,inactive
MAN1C1 (GeneID 57134),1,0.77,inactive
MAN1C1 (GeneID 57134),1,0.22,inactive
LPAR5 (GeneID 57121),1,0.24,inactive
LPAR5 (GeneID 57121),1,-0.4,inactive
LPAR5 (GeneID 57121),1,1.47,inactive
LPAR5 (GeneID 57121),1,0.03,inactive
CPNE2 (GeneID 221184),1,0.04,inactive
CPNE2 (GeneID 221184),1,0.54,inactive
CPNE2 (GeneID 221184),1,1.33,inactive
CPNE2 (GeneID 221184),1,-0.21,inactive
OBP2A (GeneID 29991),1,0.42,inactive
OBP2A (GeneID 29991),1,0.1,inactive
OBP2A (GeneID 29991),1,0.92,inactive
OBP2A (GeneID 29991),1,0.17,inactive

18 entries from above, set out differently.
| gene | reagent | TNF reporter robust z-score | call |
| --- | --- | --- | --- |
| GLYATL1 (GeneID 92292) | 1 | -0.42 | inactive |
| TOPBP1 (GeneID 11073) | 1 | -1 | inactive |
| TOPBP1 (GeneID 11073) | 1 | -0.26 | inactive |
| TOPBP1 (GeneID 11073) | 1 | -0.02 | inactive |
| TOPBP1 (GeneID 11073) | 1 | -0.71 | inactive |
| IQSEC2 (GeneID 23096) | 1 | 2.12 | inactive |
| IQSEC2 (GeneID 23096) | 1 | 1.91 | inactive |
| IQSEC2 (GeneID 23096) | 1 | 1.02 | inactive |
| IQSEC2 (GeneID 23096) | 1 | 1.33 | inactive |
| MAN1C1 (GeneID 57134) | 1 | -0.25 | inactive |
| MAN1C1 (GeneID 57134) | 1 | -0.77 | inactive |
| MAN1C1 (GeneID 57134) | 1 | 0.77 | inactive |
| MAN1C1 (GeneID 57134) | 1 | 0.22 | inactive |
| LPAR5 (GeneID 57121) | 1 | 0.24 | inactive |
| LPAR5 (GeneID 57121) | 1 | -0.4 | inactive |
| LPAR5 (GeneID 57121) | 1 | 1.47 | inactive |
| LPAR5 (GeneID 57121) | 1 | 0.03 | inactive |
| CPNE2 (GeneID 221184) | 1 | 0.04 | inactive |
